In patent US20210060157A1 (published 2021) one finds binding data, which are given here for one molecule.

The test deals with cynomolgus monkey C6 (cynomolgus monkey). Briefly: Western blot of cynomolgus monkey serum, antibody 1:500. (In general: Immunoblotting shows a protein as a band on a membrane.)

No constants are given. Whether binding was seen depends on the method and setting. Some results given as binding are weak or reduced against the parent protein; the word gives no strength.

B1: rat anti-human C6 monoclonal antibody 7E5 (antibody, V domains shown)
VH: EVQLVESDGGLVQPGGSLKLSCVASGFSFSDYYMAWVRQGPTKGLEWVATINYDGSSTYYRESVKGRFTISRDNAKRTLYLQMDSLRSEDTATYYCSRPSTEALFAYWGHGTLVTVSS
VL: DVVLTQTPSTLSATIGQSVSISCRSSQSLLNDVGNTYLYWYLQRPGQSPQLLIYLVSDLGSGVPNRFSGSGSGTDFTLKISGVEAEDLGIYYCMQASHAPYTFGAGTNLELK
notes: Whole antibody (150 kDa analyte in SPR) from a rat hybridoma; also called 7E5 mAb; supernatant #11
In the case of B1, the binding entry is “binds”.
